Each number is a percent effect as filed.
The record does not define 0% and 100%; most values in the screen are far below 50% and negative numbers occur (in some assays of this library far below -100).
This is an unselected part of the compounds tested.

The chains behind the UniProt entries cited, without tags or fusion partners. Residues count along the entry.
UniProt Q4DA54, 1-478: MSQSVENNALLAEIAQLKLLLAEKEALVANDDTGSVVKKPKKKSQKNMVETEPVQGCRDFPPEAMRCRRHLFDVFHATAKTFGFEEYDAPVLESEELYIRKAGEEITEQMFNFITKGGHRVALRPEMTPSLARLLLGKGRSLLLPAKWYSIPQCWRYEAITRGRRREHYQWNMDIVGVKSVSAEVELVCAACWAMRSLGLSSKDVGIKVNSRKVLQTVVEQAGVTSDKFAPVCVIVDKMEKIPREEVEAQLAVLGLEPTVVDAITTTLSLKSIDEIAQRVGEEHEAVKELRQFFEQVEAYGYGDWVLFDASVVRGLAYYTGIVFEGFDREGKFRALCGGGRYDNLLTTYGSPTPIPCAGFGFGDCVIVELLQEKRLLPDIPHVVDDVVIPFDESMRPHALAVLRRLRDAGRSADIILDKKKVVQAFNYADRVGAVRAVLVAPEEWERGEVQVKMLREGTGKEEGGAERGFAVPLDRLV
UniProt Q8IDJ8, 1-583: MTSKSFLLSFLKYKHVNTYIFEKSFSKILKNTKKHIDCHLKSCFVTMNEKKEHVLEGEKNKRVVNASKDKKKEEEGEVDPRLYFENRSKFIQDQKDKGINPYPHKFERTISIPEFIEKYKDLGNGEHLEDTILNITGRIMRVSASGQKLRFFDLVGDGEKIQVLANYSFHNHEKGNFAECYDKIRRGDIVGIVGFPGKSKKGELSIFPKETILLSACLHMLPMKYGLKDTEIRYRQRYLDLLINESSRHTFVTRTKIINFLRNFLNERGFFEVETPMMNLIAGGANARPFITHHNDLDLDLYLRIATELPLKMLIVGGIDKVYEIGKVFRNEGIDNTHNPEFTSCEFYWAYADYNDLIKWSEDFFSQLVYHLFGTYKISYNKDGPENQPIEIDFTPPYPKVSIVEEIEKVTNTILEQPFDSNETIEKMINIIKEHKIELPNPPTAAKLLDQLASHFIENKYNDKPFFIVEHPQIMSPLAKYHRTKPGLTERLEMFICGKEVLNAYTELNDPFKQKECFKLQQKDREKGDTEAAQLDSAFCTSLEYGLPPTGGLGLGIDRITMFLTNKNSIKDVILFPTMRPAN

TcHisRS: 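Histidine-tRNA ligase, Trypanosoma cruzi CL Brener (UniProt Q4DA54). Enzyme assay of histidyl-tRNA synthetase; the read-out is not stated. Tested at 30 µM. Direction is inferred from retests: higher values go with stronger inhibition. Size under these conditions: about 69,000 compounds, about 31 of them at 50% or above in at least one test.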
PfKRS1: 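Enzyme assay of the cytosolic lysyl-tRNA synthetase in 384-well plates, read by luminescence. Target: Lysine-tRNA ligase, Plasmodium falciparum 3D7 (UniProt Q8IDJ8). Compounds at 30 µM. Higher reads as stronger inhibition, judged from the few compounds that gave an IC50. Size under these conditions: about 69,000 compounds, about 49 of them at 50% or above in at least one test.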

Compound: COC(=O)[C@@H]1Cc2ncn(C)c2CN1S(=O)(=O)c1cccs1
TcHisRS: 5.473
PfKRS1: 5.895

Compound: COc1ccccc1CN(Cc1cccc(C)c1)C(=O)[C@@H](N)CC(=O)O
TcHisRS: 6.627
PfKRS1: -2.044

Compound: Cc1ccc(N2CCCC(N(C)Cc3nnc(C4CC4)o3)C2)nn1 (centres unmarked)
TcHisRS: 5.747
PfKRS1: 7.962

Compound: CC(C)NC(=O)c1ccc(NC(=O)NC(C)c2ccccn2)cc1 (centres unmarked)
TcHisRS: 8.929
PfKRS1: -3.156

Compound: CCc1ccccc1OC1CN(C(=O)c2ccnc(OC)c2)C1
TcHisRS: 9.524
PfKRS1: 4.277

Compound: CC(c1cccnc1)N1CCN(C(=O)NCc2cnn(C)c2)CC1 (centres unmarked)
TcHisRS: 7.027
PfKRS1: -0.6221

Compound: Cc1cc(C)n(-c2ccccc2NC(=O)NCCS(=O)(=O)CC(C)C)n1
TcHisRS: 5.6
PfKRS1: 4.211

Compound: CC(C)CC(C)NCCCN1CCCN(C)CC1 (centres unmarked)
TcHisRS: 1.22
PfKRS1: -0.5231

Compound: CC(CCSc1ccccc1)N1CCN(C(=O)c2cccs2)CC1 (centres unmarked)
TcHisRS: 7.792
PfKRS1: 0.3736

Compound: CC(=O)NCC(=O)NCC1Cn2nnc(-c3cccc(F)c3)c2CO1 (centres unmarked)
TcHisRS: 6.863
PfKRS1: 1.422

Compound: CC(=O)NCC(=O)N1CCC2(COCc3c(C)nc(N(C)C)nc32)C1 (centres unmarked)
TcHisRS: 3
PfKRS1: -1.179

Compound: CCN(C)c1ncnc2c1CCN(S(=O)(=O)c1ccccc1)CC2
TcHisRS: 7.538
PfKRS1: 3.112

Compound: CCc1ncc(C(=O)N2CCC(Nc3ccc(C)nn3)CC2)s1
TcHisRS: -35.03
PfKRS1: 0.7042

Compound: CCOc1ccc(CN(C)C(=O)c2nc(N3CCCC3)ncc2Cl)cc1
TcHisRS: 13.94
PfKRS1: 3.299

Compound: Cc1ncsc1C(=O)NC1CCN(CCC(N)=O)CC1
TcHisRS: -5.344
PfKRS1: -3.629

Compound: CC(=O)c1c[nH]c(C(=O)N2CCN(C(C(N)=O)c3ccccc3)CC2)c1 (centres unmarked)
TcHisRS: -1.299
PfKRS1: -6.038

Compound: CN(C)Cc1ccccc1CN(C)c1ncnc2[nH]ccc12
TcHisRS: 6.383
PfKRS1: 6.574

Compound: O=C(O)C1(Oc2ccccc2F)CCN(C/C=C/c2ccco2)CC1
TcHisRS: -2.326
PfKRS1: -1.568

Compound: Cc1ccn(-c2ccnc(N3CCC(N4CCCCC4)CC3)n2)n1
TcHisRS: 3.727
PfKRS1: 3.257

Compound: CCC(CC)C(CNC(=O)Nc1cnn(CCOC)c1)N(C)C (centres unmarked)
TcHisRS: 0.5405
PfKRS1: -3.121

Compound: O=C(NCC1CC1)C1=NOC2(CCN(S(=O)(=O)c3ccc(F)cc3)C2)C1 (centres unmarked)
TcHisRS: -4.132
PfKRS1: 1.364

Compound: CNC(=O)[C@@H]1[C@@H](c2ccccc2)CN2CCN(Cc3cccs3)C[C@H]12
TcHisRS: 3.371
PfKRS1: 1.484

Compound: O=C(c1ncccn1)N1C[C@H]2CCC[C@@]2(COCC2CCOCC2)C1
TcHisRS: 3.867
PfKRS1: 1.036

Compound: CC(C)C(C(=O)N1CCCN(Cc2cnn(C)c2)CC1)n1cncn1 (centres unmarked)
TcHisRS: 2.51
PfKRS1: 1.97

Compound: CC(C#N)NS(=O)(=O)c1ccc2c(c1)N(C)CCC2 (centres unmarked)
TcHisRS: 7.182
PfKRS1: 1.997

Compound: O=C(c1ccco1)N1CCOCC2(C1)CN(c1ccccc1)C(=O)CO2 (centres unmarked)
TcHisRS: -3.784
PfKRS1: 4.936

Compound: CN1C(=O)CCCC12CCCN(C(=O)c1cccc(C(F)(F)F)c1)C2 (centres unmarked)
TcHisRS: 1.442
PfKRS1: -0.2796

Compound: Cc1cc(C(=O)NS(=O)(=O)Cc2ccon2)c(C)n1C(C)C
TcHisRS: 8.235
PfKRS1: 7.592

Compound: CN(Cc1ccc(Br)c2cccnc12)S(C)(=O)=O
TcHisRS: -3.093
PfKRS1: -2.79

Compound: O=C(NCCCN1CCOCC1)Nc1cnc2cc(Cl)ccc2c1O
TcHisRS: -0.5405
PfKRS1: 0.5512

Compound: COc1cccc(CNC(=O)c2ccccc2-n2cnc(CN)c2)c1
TcHisRS: 6.667
PfKRS1: 1.932

Compound: Cc1nc(C)c(CC(=O)Nc2nnc(C)s2)c(=O)[nH]1
TcHisRS: 0.3802
PfKRS1: 0.764

The last 3 entries again:

Compound,TcHisRS,PfKRS1
O=C(NCCCN1CCOCC1)Nc1cnc2cc(Cl)ccc2c1O,-0.5405,0.5512
COc1cccc(CNC(=O)c2ccccc2-n2cnc(CN)c2)c1,6.667,1.932
Cc1nc(C)c(CC(=O)Nc2nnc(C)s2)c(=O)[nH]1,0.3802,0.764

Measurements from “University of Dundee, Small-Polar-MMV Screening Library” (2021), ChEMBL document CHEMBL3988442.